These are yes or no findings as the source states them, for the method shown. Binding seen in cells or lysates may run through a third protein. A yes stands for co-enrichment or nearness to the bait. Other partners may have been found. For part of these data: Where a sequence is shown, tags or fusion partners need not be part of it.

Protein sequences, listed by entry. Tags and fused reporters are not part of them. Lines headed by an entry give the natural chain unless they say otherwise; changes in a name come on top.
UniProt Q9NVM9: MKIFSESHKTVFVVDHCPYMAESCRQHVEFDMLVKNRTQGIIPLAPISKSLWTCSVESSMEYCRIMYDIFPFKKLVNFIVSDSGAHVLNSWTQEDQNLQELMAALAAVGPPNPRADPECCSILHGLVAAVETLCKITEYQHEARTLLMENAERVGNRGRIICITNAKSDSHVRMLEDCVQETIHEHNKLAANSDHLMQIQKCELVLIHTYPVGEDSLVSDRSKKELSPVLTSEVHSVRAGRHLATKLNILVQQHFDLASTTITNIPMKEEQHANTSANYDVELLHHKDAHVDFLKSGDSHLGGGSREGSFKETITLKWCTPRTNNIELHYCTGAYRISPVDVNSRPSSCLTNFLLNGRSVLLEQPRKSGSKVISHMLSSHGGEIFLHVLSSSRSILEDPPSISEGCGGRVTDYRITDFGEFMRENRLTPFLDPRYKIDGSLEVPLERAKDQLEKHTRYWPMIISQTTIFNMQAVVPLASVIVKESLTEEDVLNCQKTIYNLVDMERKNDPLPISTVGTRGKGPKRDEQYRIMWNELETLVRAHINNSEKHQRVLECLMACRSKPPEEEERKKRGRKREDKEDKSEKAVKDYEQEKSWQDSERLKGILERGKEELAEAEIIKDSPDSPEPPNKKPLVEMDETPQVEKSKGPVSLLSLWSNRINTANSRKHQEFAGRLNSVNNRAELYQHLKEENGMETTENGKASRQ
UniProt Q9NVR2: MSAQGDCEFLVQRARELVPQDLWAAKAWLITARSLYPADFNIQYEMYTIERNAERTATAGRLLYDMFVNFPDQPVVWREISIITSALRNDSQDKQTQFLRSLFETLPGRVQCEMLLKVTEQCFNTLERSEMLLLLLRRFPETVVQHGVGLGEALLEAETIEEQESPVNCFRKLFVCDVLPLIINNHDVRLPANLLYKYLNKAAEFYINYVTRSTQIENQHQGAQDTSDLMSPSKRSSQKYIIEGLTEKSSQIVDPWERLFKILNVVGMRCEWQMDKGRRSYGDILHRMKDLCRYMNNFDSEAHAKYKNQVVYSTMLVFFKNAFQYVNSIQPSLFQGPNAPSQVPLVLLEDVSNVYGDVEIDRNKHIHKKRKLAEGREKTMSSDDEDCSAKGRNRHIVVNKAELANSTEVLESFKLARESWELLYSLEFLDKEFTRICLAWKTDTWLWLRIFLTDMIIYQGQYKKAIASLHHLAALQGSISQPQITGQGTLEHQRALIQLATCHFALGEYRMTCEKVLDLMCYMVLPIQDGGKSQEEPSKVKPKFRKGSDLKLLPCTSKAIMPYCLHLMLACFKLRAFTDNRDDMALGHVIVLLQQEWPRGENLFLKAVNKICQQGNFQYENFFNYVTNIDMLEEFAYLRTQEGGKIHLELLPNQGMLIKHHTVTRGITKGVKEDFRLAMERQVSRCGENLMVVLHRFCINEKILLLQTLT

The target in assay [1] is FLAG-INTS13 Family 2 mutant (p.S652L) (HEK-293T stable line) (human) (UniProt Q9NVM9). In words: co-IP + affinity purification with mass spectrometry; anti-FLAG M2 agarose on nuclear extract of HEK-293T lines expressing FLAG-INTS13 wt, F1 or F2 (48 h doxycycline); 20 mM HEPES pH 7.4, 150 mM KCl, 10% glycerol, 0.1% NP-40, 4 °C; LC/MS and western blot; naive cells as control. In general terms: A western blot detects proteins with antibodies after separation by electrophoresis.

Assay [2] deals with T1, FLAG-dIntS13 wild type (Drosophila S2 stable line) (Drosophila) (UniProt Q9VEX5).
T1 sequence: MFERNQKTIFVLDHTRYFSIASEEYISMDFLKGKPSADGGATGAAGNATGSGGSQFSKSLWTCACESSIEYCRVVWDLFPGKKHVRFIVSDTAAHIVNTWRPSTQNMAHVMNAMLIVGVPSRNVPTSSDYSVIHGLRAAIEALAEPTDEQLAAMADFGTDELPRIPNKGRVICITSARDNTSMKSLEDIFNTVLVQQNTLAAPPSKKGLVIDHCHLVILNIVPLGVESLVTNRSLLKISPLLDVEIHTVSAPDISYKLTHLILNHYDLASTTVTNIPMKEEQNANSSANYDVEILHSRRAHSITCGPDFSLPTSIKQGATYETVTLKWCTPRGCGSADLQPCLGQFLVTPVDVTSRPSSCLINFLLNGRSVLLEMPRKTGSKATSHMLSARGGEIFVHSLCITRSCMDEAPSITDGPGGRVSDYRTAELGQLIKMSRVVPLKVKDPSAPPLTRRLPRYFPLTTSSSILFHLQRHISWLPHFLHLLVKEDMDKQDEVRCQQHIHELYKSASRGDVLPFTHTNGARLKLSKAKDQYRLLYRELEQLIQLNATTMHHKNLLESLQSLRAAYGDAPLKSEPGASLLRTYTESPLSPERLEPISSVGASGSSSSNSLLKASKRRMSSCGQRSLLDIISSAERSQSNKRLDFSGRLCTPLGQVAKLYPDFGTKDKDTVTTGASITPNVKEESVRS
In words: co-IP + affinity purification with mass spectrometry; anti-FLAG affinity resin on nuclear extract of Drosophila S2 lines expressing FLAG-dIntS13 wt, dF1 or dF2 (copper-induced); LC/MS and western blot; naive S2 cells as control.

“endogenous INTS10 (HEK-293T nuclear extract) (from UniProt Q9NVR2 1-710)”: the binding entry in assay [1] is on record as “binds”.

B1: endogenous dIntS14 (Drosophila S2 nuclear extract) (protein, UniProt Q9VPY0 1-587)
chain: MPTLIALDASLSMLRPVPGRNEHTYQSLATKGIQHLLDNLTAAGKLEHVALLSYSTTAELKVDFTRDYDQVRQAVKKVEPVDKACLMSMLKAVVSIMSPWGNQNILQVVVFTDCGLGFGNTSITGFLEAYAEKESEPEFGFLKTLANYNLNFICLGLHGDYYFTRGLAVYQQLLDKVSLKGQLFMTKPAKSSDAVEGNPNPNPNPSHKSELGRTTVFELIERLCEASYKSSEVTLKCGSYFRMEASVLLWPPTAPYEQKSHIFGREPTIRHTDQKIEVCGFLSLSDIGSPATLSRHWVLPKVEREKSGSSRRSGNLSAAAKPPKLNLDTSNPNYELEKLEADIKEFYAKDSKDTEESGDDDVTIVLKPGPQTEQQKENLCVLLHGALKMENMAALVRVGDKWYGFIYAFTDSKKKSNLMLNILPPGTNVIPWLGDLESLGFPEDLAPGETASFPVRADRRSYSQSSVVWIRQASLQSDVQKVLRHAKKMPDKTQHFYKELNRIRRAALALGFVELLEALAMLLEKECAHLSLNGASNDCTLQLQHAATELRKTSNRDMKSMIVPLQKVGASDAGSTAATAPAPAYMY
B1: the binding entry in assay [2] is recorded as “binds”.

B2: endogenous dIntS10 (Drosophila S2 nuclear extract) (protein, UniProt Q9VZM7 1-631)
chain: MPSQEENELYMVKEAQRLRKSDPCAAMAWIITAKTLYPNAFNLQYEAYLLERDAQNYEEAAKCFSAIATNFQNQHTELWQEINSLTNALRNENETTPEHEFYVKMYKHLTPEVQHNIFMHTINHSADNLERIYIYILMFNKFPKSAITQAPRLLEMLAEGMKTEPDLYQRILVEEVLPMIQNKPPELSPNLACRLYTSSLEFYLRQIMDESDTADAWKNIFKVLMICGQMMGWEPFLPFSKHVNQNVYWEKLVDILSGSPAGSSQVLFYATTLFIYSLHGYIRNCKLRIEDADVTHVLVEGFMEWSPEGDGSEVPSMEPPKFSLTTAISPELSKAFLHAAQCWQLLNTDQFQRDFSQLMLALPLAPWISRFLFDLAIYFGHRDEANKLMADMTTQSSLVQSLQILSLNLMQGSMTLQGFQCILKILSELPTTQGQLLENMSLKGHRHMVFLPLTRSALVQYCVGAIISRLSRKVFEPNVPDRLLGDILVLQQLNLLNDVLLTQQIFNLIKQRKSFNLRTLSTYIINIDLLEELSHIWNSQQEDNFELTSSPNSSGTPTATTVAGGSQSRRIGTRGADKGARDEFRAITRQQIARCNENVITLLANFINQEHLMLAQHIFGISQPVETIVIK
For B2, in assay [2], the binding result is reported as “binds”.

Values taken from publication PMC9559116.
